Source: patent US20260271924A1, “COMPOSITIONS FOR MODULATING PLANT GROWTH AND STRESS TOLERANCE, AND METHODS OF USE THEREOF” (The Regents of the University of California, priority 2023, published 2026)

Tested on: Arabidopsis root
Assay: RNA-seq analysis of Arabidopsis roots
Assay type: in vivo, Arabidopsis thaliana
Conditions: 50 μM 4-OI, short term (6 hour)

C=C(CC(=O)OCCCCCCCC)C(=O)O [4-OI, 4-octyl itaconate]
genes downregulated: 1028 genes
genes upregulated: 814 genes
